# Source: the supplement of paper PMC8728848
# Some of the results follow.
# B1: Aap brpt (Staphylococcus epidermidis) (protein)
# chain: VDGDPITSTEEIPFDKKREFDPNLAPGTEKVVQKGEPGTKTITTPTTKNPLTGEKVGEGEPTEKITKQPVDEIVHYGGEEIKTGHKDEFDPNAPKGSQTTQPGKPGVKNPDTGEVVTPPVDDVTKYGPVDGDPITSTEEIPFDKKREFDPNLAPGTEKVVQKGEPGTKTITTPTTKNPLTGEKVGEGEPTEKITKQPVDEIVHYGGEEIKPGHKDEFDPNAPKGSQEDVPGKPGVKNPDTGEVVTPPVDDVTKYGPVDGDSITSTEEIPFDKKREFDPNLAPGTEKVVQKGEPGTKTITTPTTKNPLTGEKVGEGEPTEKITKQPVDEIVHYGGEQIPQGHKDEFDPNAPVDSKTEVPGKPGVKNPDTGEVVTPPVDDVTKYGPVDGDSITSTEEIPFDKKREFDPNLAPGTEKVVQKGEPGTKTITTPTTKNPLTGEKVGEGKSTEKVTKQPVDEIVEYGPTK
# Tests used:
# Assay in all cases: glycan array binding signal (z-score within array); higher = stronger binding
# Conditions in all cases: glycan notation: IUPAC condensed, linker removed
# GlcNAc(b1-3)Man = molecular target: GlcNAc(b1-3)Man
# In short: (§1)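 Glycan array data were curated from 3228 arrays in the Consortium for Functional Glycomics database and kept only where the protein sequence was available. Glycan names were converted to IUPAC-condensed notation, and columns mapping to the same glycan were averaged. The binding signal is a within-array Z-score, averaged across arrays of the same protein sequence at different concentrations or buffers and across linkers. Negative Z-scores can be read as non-binding.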
# [1] = molecular target: GlcNAc(b1-3)[GlcNAc(b1-4)][GlcNAc(b1-6)]GlcNAc
# In short: as §1
# [2] = molecular target: GlcNAc(b1-3)[GlcNAc(b1-6)]Gal(b1-4)GlcNAc
# In short: as §1
# [3] = molecular target: GlcNAc(b1-3)[GlcNAc(b1-6)]GalNAc
# In short: as §1
# [4] = molecular target: GlcNAc(b1-4)Gal(b1-4)GlcNAc
# In short: as §1
# GlcNAc(b1-4)GlcNAc = molecular target: GlcNAc(b1-4)GlcNAc
# In short: as §1
# [5] = molecular target: GlcNAc(b1-4)GlcNAc(b1-4)GlcNAc
# In short: as §1
# [6] = molecular target: GlcNAc(b1-4)GlcNAc(b1-4)GlcNAc(b1-4)GlcNAc(b1-4)GlcNAc
# In short: as §1
# [7] = molecular target: GlcNAc(b1-4)GlcNAc(b1-4)GlcNAc(b1-4)GlcNAc(b1-4)GlcNAc(b1-4)GlcNAc
# In short: as §1
# [8] = molecular target: GlcNAc(b1-4)[GlcNAc(b1-6)]GalNAc
# In short: as §1
# [9] = molecular target: GlcNAc(b1-6)Gal(b1-4)GlcNAc
# In short: as §1
# GlcNAc(b1-6)GalNAc = molecular target: GlcNAc(b1-6)GalNAc
# In short: as §1
# [10] = molecular target: GlcNAc6S(b1-3)Gal(b1-4)GlcNAc
# In short: as §1
# Kdn(a2-3)Gal(b1-3)GalNAc = molecular target: Kdn(a2-3)Gal(b1-3)GalNAc
# In short: as §1
# Kdn(a2-3)Gal(b1-3)GlcNAc = molecular target: Kdn(a2-3)Gal(b1-3)GlcNAc
# In short: as §1
# Kdn(a2-3)Gal(b1-4)Glc = molecular target: Kdn(a2-3)Gal(b1-4)Glc
# In short: as §1
# Kdn(a2-3)Gal(b1-4)GlcNAc = molecular target: Kdn(a2-3)Gal(b1-4)GlcNAc
# In short: as §1
# [11] = molecular target: Kdn(a2-3)Gal(b1-4)[Fuc(a1-3)]GlcNAc
# In short: as §1
# Kdn(a2-6)Gal(b1-4)GlcNAc = molecular target: Kdn(a2-6)Gal(b1-4)GlcNAc
# In short: as §1
# [12] = molecular target: Man(a1-2)Man(a1-2)Man(a1-3)Man
# In short: as §1
# [13] = molecular target: Man(a1-2)Man(a1-2)Man(a1-6)[Man(a1-3)]Man
# In short: as §1
# Man(a1-2)Man(a1-3)Man = molecular target: Man(a1-2)Man(a1-3)Man
# In short: as §1
# [14] = molecular target: Man(a1-2)Man(a1-3)[Man(a1-2)Man(a1-6)]Man
# In short: as §1
# [15] = molecular target: Man(a1-2)Man(a1-3)[Man(a1-2)Man(a1-6)]Man(a1-6)[Man(a1-2)Man(a1-2)Man(a1-3)]Man
# In short: as §1
# [16] = molecular target: Man(a1-2)Man(a1-3)[Man(a1-2)Man(a1-6)]Man(a1-6)[Man(a1-2)Man(a1-2)Man(a1-3)]Man(b1-4)GlcNAc(b1-4)GlcNAc
# In short: as §1
# [17] = molecular target: Man(a1-2)Man(a1-3)[Man(a1-6)]Man(a1-6)[Man(a1-2)Man(a1-3)]Man(b1-4)GlcNAc(b1-4)GlcNAc
# In short: as §1
# [18] = molecular target: Man(a1-2)Man(a1-6)[Man(a1-3)]Man(a1-6)[Man(a1-2)Man(a1-2)Man(a1-3)]Man
# In short: as §1
# [19] = molecular target: Man(a1-2)Man(a1-6)[Man(a1-3)]Man(a1-6)[Man(a1-2)Man(a1-2)Man(a1-3)]Man(b1-4)GlcNAc(b1-4)GlcNAc
# In short: as §1
# Man(a1-3)[Man(a1-6)]Man = molecular target: Man(a1-3)[Man(a1-6)]Man
# In short: as §1
# [20] = molecular target: Man(a1-3)[Man(a1-6)]Man(a1-6)[Man(a1-2)Man(a1-3)]Man(b1-4)GlcNAc(b1-4)GlcNAc
# In short: as §1
# [21] = molecular target: Man(a1-3)[Man(a1-6)]Man(a1-6)[Man(a1-3)]Man
# In short: as §1
# [22] = molecular target: Man(a1-3)[Man(a1-6)]Man(a1-6)[Man(a1-3)]Man(b1-4)GlcNAc(b1-4)GlcNAc
# In short: as §1
# [23] = molecular target: Man(a1-3)[Man(a1-6)]Man(b1-4)GlcNAc(b1-4)GlcNAc
# In short: as §1
# [24] = molecular target: Man(a1-3)[Man(a1-6)]Man(b1-4)GlcNAc(b1-4)[Fuc(a1-6)]GlcNAc
# In short: as §1
# Man(a1-6)Man = molecular target: Man(a1-6)Man
# In short: as §1
# Man(b1-4)GlcNAc = molecular target: Man(b1-4)GlcNAc
# In short: as §1
# MurNAc(b1-4)GlcNAc = molecular target: MurNAc(b1-4)GlcNAc
# In short: as §1
# Neu5Ac(a2-3)Gal = molecular target: Neu5Ac(a2-3)Gal
# In short: as §1
binder,measurement,setting,value
B1,glycan array binding signal (z-score),GlcNAc(b1-3)Man,-1.25
same,glycan array binding signal (z-score),[1],-0.444
same,glycan array binding signal (z-score),[2],-0.767
same,glycan array binding signal (z-score),[3],0.538
same,glycan array binding signal (z-score),[4],0.453
same,glycan array binding signal (z-score),GlcNAc(b1-4)GlcNAc,-0.727
same,glycan array binding signal (z-score),[5],0.541
same,glycan array binding signal (z-score),[6],-1.51
same,glycan array binding signal (z-score),[7],-0.028
same,glycan array binding signal (z-score),[8],1.07
same,glycan array binding signal (z-score),[9],1.15
same,glycan array binding signal (z-score),GlcNAc(b1-6)GalNAc,0.242
same,glycan array binding signal (z-score),[10],-0.559
same,glycan array binding signal (z-score),Kdn(a2-3)Gal(b1-3)GalNAc,1.59
same,glycan array binding signal (z-score),Kdn(a2-3)Gal(b1-3)GlcNAc,-1.94
same,glycan array binding signal (z-score),Kdn(a2-3)Gal(b1-4)Glc,-0.942
same,glycan array binding signal (z-score),Kdn(a2-3)Gal(b1-4)GlcNAc,-0.501
same,glycan array binding signal (z-score),[11],0.039
same,glycan array binding signal (z-score),Kdn(a2-6)Gal(b1-4)GlcNAc,0.338
same,glycan array binding signal (z-score),[12],0.639
same,glycan array binding signal (z-score),[13],0.692
same,glycan array binding signal (z-score),Man(a1-2)Man(a1-3)Man,0.657
same,glycan array binding signal (z-score),[14],-0.923
same,glycan array binding signal (z-score),[15],2.59
same,glycan array binding signal (z-score),[16],-0.696
same,glycan array binding signal (z-score),[17],0.143
same,glycan array binding signal (z-score),[18],0.84
same,glycan array binding signal (z-score),[19],0.329
same,glycan array binding signal (z-score),Man(a1-3)[Man(a1-6)]Man,1.58
same,glycan array binding signal (z-score),[20],2.29
same,glycan array binding signal (z-score),[21],-1
same,glycan array binding signal (z-score),[22],-1.49
same,glycan array binding signal (z-score),[23],0.081
same,glycan array binding signal (z-score),[24],-0.618
same,glycan array binding signal (z-score),Man(a1-6)Man,1.21
same,glycan array binding signal (z-score),Man(b1-4)GlcNAc,0.142
same,glycan array binding signal (z-score),MurNAc(b1-4)GlcNAc,1.17
same,glycan array binding signal (z-score),Neu5Ac(a2-3)Gal,0.475

# Reprinted at random: three entries already listed
binder,measurement,setting,value
B1,glycan array binding signal (z-score),[4],0.453
same,glycan array binding signal (z-score),MurNAc(b1-4)GlcNAc,1.17
same,glycan array binding signal (z-score),[10],-0.559
